In patent publication US12605350B2, “Composition for preventing, ameliorating, or treating disease caused by nitration of tyrosine in proteins comprising tyrosine as effective component” (INDUSTRY-ACADEMIC COOPERATION FOUNDATION GYEONGSANG …, priority 2020, dated 2026):

Experiments:
[1] = tested on: high-fat diet mouse model of type 2 diabetes; assay: high-fat diet mouse model of type 2 diabetes: bodyweight, food intake amount, blood glucose; assay type: in vivo; settings: 3 months
Experimental: Twenty-seven C57BL/6 male mice (3-week old) were acclimated to the breeding condition for 1 week. […] Blood glucose was measured every week.

[2] = bodyweight and food intake, chronic immobilization stress group fed with tyrosine-diet; assay type: in vivo, mouse; settings: tyrosine-supplemented diet (181.2 mg/kg) vs normal diet, CIS 15 days
[3] = bodyweight and food intake, chronic immobilization stress with D-Tyr diet; assay type: in vivo, mouse; settings: D-Tyr-containing diet (181 mg D-Tyr/kg AIN-93G), chronic stress 14 days

| SMILES | bodyweight change ([1]; HFD+L-Tyr (181 mg of L-tyrosine/kg) vs HFD) | food intake amount ([1]; ND, HFD, HFD+L-Tyr (181 mg of L-tyrosine/kg)) | change in bodyweight [2] | food intake amount [2] | bodyweight [3] | food intake amount [3] |
| --- | --- | --- | --- | --- | --- | --- |
| N[C@@H](Cc1ccc(O)cc1)C(=O)O [L-tyrosine] | similar | almost no difference among different test groups | – | – | – | – |
| N[C@@H](Cc1ccc(O)cc1)C(=O)O [tyrosine] | – | – | no change in bodyweight | no change in bodyweight or any difference in food intake amount | no difference in bodyweight and food intake amount | no difference in bodyweight and food intake amount |
